Source: PubChem BioAssay AID1259307 (Sanger Institute, 2017)
This is an unselected part of 794 deposited reagents. 15 of them (1.9%) count as active. 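Calls reflect lethality without any drug; synergy scores did not enter the calls.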 Entries without a mark were called inactive. No viability above 1 is reported: the scale is capped. The record does not give: the amount of reagent, the time to read-out.

Assay: 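Screen of kinase gene silencing for colorectal cancer cell killing and drug cooperation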 (primary screen)
System: SW620 colorectal cancer cells
Reagents: siRNA pool against human genes
Conditions: anchor drugs BYL719 at 1 µM, cetuximab at 5 µg/ml or trametinib at 10 nM, each beside a DMSO vehicle arm
Measurement: 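Cell viability in each well relative to non-targeting controls, averaged over replicates and turned into a robust z-score; synergy with BYL719 (1 µM), cetuximab (5 µg/ml), trametinib (10 nM) versus DMSO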
Scale: viability robust z-score, no drug and viability vs control, no drug: higher = more viable cells; synergy score with BYL719 and synergy score with cetuximab and synergy score with trametinib: higher = stronger synthetic lethality with the drug
Rule for the call: 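Essential when the viability robust z-score without drug is under -3; synergy scores are ignored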
Meaning of the calls: active = essential (lethal alone); inactive = no change alone

gene | viability robust z-score, no drug | viability vs control, no drug | synergy score with BYL719 | synergy score with cetuximab | synergy score with trametinib
STK24 (GeneID 8428) | 0.736 | 1 | -0.0458 | 0.0654 | 0.125
ATM (GeneID 472) | -0.858 | 0.853 | -0.118 | -0.0344 | -0.131
RPS6KA4 (GeneID 8986) | 0.736 | 1 | -0.0417 | 0.0825 | 0.0804
FLT4 (GeneID 2324) | 0.736 | 1 | -0.00559 | 0 | -0.0514
PRKCQ (GeneID 5588) | 0.295 | 0.959 | 0.0189 | 0.0641 | 0.0713
AURKA (GeneID 6790) | -4.14 (active) | 0.55 | 0.0283 | 0.00265 | -0.0233
PNKP (GeneID 11284) | -0.0758 | 0.925 | -0.0155 | 0.0067 | 0.00631
PRKAG2 (GeneID 51422) | 0.736 | 1 | -0.0919 | 0 | -0.011
CERT1 (GeneID 10087) | 0.736 | 1 | -0.0727 | 0 | 0.0786
BTK (GeneID 695) | 0.158 | 0.947 | -0.0746 | 0.0189 | 0.00659
TGFBR2 (GeneID 7048) | 0.57 | 0.985 | -0.0155 | -0.0131 | 0.00218
GRK6 (GeneID 2870) | -0.857 | 0.853 | -0.109 | -0.0999 | 0.0296
KCNH8 (GeneID 131096) | 0.736 | 1 | -0.0919 | 0.00235 | 0.0495
LTK (GeneID 4058) | -1.03 | 0.837 | -0.168 | -0.0721 | -0.229
FGFRL1 (GeneID 53834) | -0.176 | 0.916 | -0.1 | -0.0416 | -0.0909
MAP3K4 (GeneID 4216) | -0.23 | 0.911 | 0.0214 | 0.0365 | 0.0728
GATA3 (GeneID 2625) | 0.614 | 0.989 | -0.102 | -0.0113 | -0.031
MARK2 (GeneID 2011) | 0.141 | 0.945 | -0.0469 | 0.0247 | 0.00784
TPK1 (GeneID 27010) | -2.36 | 0.715 | -0.159 | -0.104 | -0.0987
DDR1 (GeneID 780) | 0.736 | 1 | -0.0919 | 0 | -0.0576
MOK (GeneID 5891) | 0.102 | 0.942 | -0.114 | -0.0585 | -0.0434
TP53RK (GeneID 112858) | 0.324 | 0.962 | -0.0667 | 0.0622 | 0.0204
MUSK (GeneID 4593) | -0.467 | 0.889 | 0.0597 | -0.0431 | 0.0592
CALM1 (GeneID 801) | 0.276 | 0.958 | 0.0182 | 0.0832 | 0.0626
RET (GeneID 5979) | 0.736 | 1 | -0.0919 | 0 | 0.0203

Targets listed so far whose gene name begins with P or p:
gene | viability robust z-score, no drug | viability vs control, no drug | synergy score with BYL719 | synergy score with cetuximab | synergy score with trametinib
PRKCQ (GeneID 5588) | 0.295 | 0.959 | 0.0189 | 0.0641 | 0.0713
PNKP (GeneID 11284) | -0.0758 | 0.925 | -0.0155 | 0.0067 | 0.00631
PRKAG2 (GeneID 51422) | 0.736 | 1 | -0.0919 | 0 | -0.011

The results go on:
gene | viability robust z-score, no drug | viability vs control, no drug | synergy score with BYL719 | synergy score with cetuximab | synergy score with trametinib
PRKAR1A (GeneID 5573) | -0.554 | 0.881 | -0.0429 | -0.0497 | 0.0486
ADCK1 (GeneID 57143) | -1.11 | 0.83 | -0.0477 | -0.17 | -0.0419
IP6K1 (GeneID 9807) | 0.125 | 0.944 | -0.111 | -0.0564 | -0.111
SRPK3 (GeneID 26576) | 0.736 | 1 | -0.0292 | 0 | -0.00516
PIK3CB (GeneID 5291) | -0.502 | 0.886 | -0.106 | -0.107 | -0.0241
NEK8 (GeneID 284086) | -0.975 | 0.842 | -0.233 | -0.158 | -0.155
GSK3B (GeneID 2932) | 0.231 | 0.953 | -0.0995 | -0.0466 | -0.105
SHPK (GeneID 23729) | -0.566 | 0.88 | -0.0391 | -0.0566 | -0.0184
DMPK (GeneID 1760) | -2.09 | 0.739 | -0.161 | -0.252 | -0.238
ITPKA (GeneID 3706) | 0.736 | 1 | -0.00958 | 0 | -0.0308
DGKH (GeneID 160851) | 0.736 | 1 | 0.0638 | 0.0898 | 0.0828
DYRK4 (GeneID 8798) | 0.5 | 0.978 | -0.0682 | 0.089 | -0.0514
VRK1 (GeneID 7443) | -0.388 | 0.896 | -0.143 | 0.166 | 0.131
CSNK1A1 (GeneID 1452) | -0.746 | 0.863 | -0.0597 | 0.0339 | -0.0925
LMBR1 (GeneID 64327) | -0.162 | 0.917 | -0.136 | -0.0567 | -0.102
CDKN1A (GeneID 1026) | 0.736 | 1 | -0.0368 | 0.0222 | 0.0951
MAGI3 (GeneID 260425) | 0.736 | 1 | 0.0586 | 0 | 0.0304
STYK1 (GeneID 55359) | 0.736 | 1 | 0.0987 | 0.0426 | 0.0627
ANKK1 (GeneID 255239) | 0.736 | 1 | 0.00496 | 0 | 0.0741
PRAG1 (GeneID 157285) | 0.736 | 1 | 0.0649 | 0.0226 | 0.097
CKB (GeneID 1152) | 0.209 | 0.951 | -0.109 | -0.0486 | -0.0777
DSTYK (GeneID 25778) | 0.736 | 1 | -0.0236 | 0 | 0.0874
TBK1 (GeneID 29110) | 0.736 | 1 | -0.0877 | 0.0492 | 0.0632
ALPK3 (GeneID 57538) | 0.736 | 1 | 0.0297 | 0.0771 | 0.117
WEE1 (GeneID 7465) | -0.584 | 0.878 | 0.0248 | 0.0835 | 0.148
